The target of experiment [1] is T1, murine Myc-tagged Popdc1Δ116 (Popdc1 lacking 116 amino acids at the C terminus) (mouse) (UniProt Q9ES83).
T1 sequence: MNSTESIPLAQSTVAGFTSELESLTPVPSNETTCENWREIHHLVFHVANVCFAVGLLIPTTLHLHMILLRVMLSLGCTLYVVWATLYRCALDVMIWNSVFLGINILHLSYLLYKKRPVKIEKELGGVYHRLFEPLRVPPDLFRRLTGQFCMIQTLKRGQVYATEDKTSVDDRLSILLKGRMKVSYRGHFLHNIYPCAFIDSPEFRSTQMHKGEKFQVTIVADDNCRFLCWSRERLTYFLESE
As to the kind of experiment: co-IP; lysates of COS7 cells co-transfected with Cav3 and Myc-tagged Popdc1 constructs; agarose bound anti-Myc antibody; Western blot with anti-Cav3.

The target of experiment [2] is T2, murine Myc-tagged full-length Popdc1 (mouse) (UniProt Q9ES83).
T2 sequence: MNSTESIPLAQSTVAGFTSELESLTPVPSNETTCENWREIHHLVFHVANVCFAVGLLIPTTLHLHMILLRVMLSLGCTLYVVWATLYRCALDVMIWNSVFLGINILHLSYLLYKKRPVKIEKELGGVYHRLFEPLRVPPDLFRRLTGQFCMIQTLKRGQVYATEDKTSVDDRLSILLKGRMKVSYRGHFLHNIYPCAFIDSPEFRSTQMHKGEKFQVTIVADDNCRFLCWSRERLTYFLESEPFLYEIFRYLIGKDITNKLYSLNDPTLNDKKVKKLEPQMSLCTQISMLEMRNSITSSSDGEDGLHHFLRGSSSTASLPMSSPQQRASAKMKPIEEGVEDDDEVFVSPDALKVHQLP
Described as above.

Experiment [3] has as its target T3, murine Myc-tagged Popdc1Δ92 (Popdc1 lacking 92 amino acids at the C terminus) (mouse) (UniProt Q9ES83).
T3 sequence: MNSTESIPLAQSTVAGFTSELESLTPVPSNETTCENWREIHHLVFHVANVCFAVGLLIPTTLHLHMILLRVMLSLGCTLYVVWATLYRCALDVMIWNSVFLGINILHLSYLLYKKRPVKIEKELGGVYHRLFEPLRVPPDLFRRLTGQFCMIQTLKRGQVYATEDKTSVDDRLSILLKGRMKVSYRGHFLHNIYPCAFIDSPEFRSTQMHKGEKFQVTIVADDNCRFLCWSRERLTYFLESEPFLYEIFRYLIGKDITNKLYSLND
The experiment is described as above.

In experiment [4] the target is T4, caveolin3 (Cav3), endogenous in neonatal rat cardiomyocytes (rat (endogenous in neonatal rat cardiomyocytes)) (UniProt P51638).
T4 sequence: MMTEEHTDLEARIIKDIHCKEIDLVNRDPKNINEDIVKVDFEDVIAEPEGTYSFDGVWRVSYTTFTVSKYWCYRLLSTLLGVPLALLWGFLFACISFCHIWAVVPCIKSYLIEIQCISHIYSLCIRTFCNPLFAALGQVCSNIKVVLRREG
As to the kind of experiment: co-IP; neonatal rat cardiomyocytes treated with the membrane permeable crosslinker dithio-bis-succinimidylpropionate; extracts incubated with rabbit anti-Popdc1 or mouse anti-Cav3 (or IgG controls), Protein A-Sepharose; Western blot for Popdc1 and Cav3.

These results are taken from publication PMC3774711.

Residue numbers refer to the chain shown, from its start. Results are given in words; binding and its absence hold for the method and conditions named. In cells and extracts the contact can be indirect. Some binding calls cover weakened binding; strength is not graded here. For some of these results: Sequences can lack the tags named with a protein.

B1: caveolin3 (Cav3) expressed in COS7 cells (protein, UniProt P51637 1-151)
chain: T4 sequence with R59K, Y62F
With B1, the results for the binding entry in experiment [1], in experiment [2] and in experiment [3] were “no binding”, “binds” and “binds”, respectively.

B2: Popeye domain containing 1 (Popdc1), endogenous in neonatal rat cardiomyocytes (protein, UniProt Q3BCU4 1-356)
chain: MNFTEPSPLAQSTVVGFLPELESLTPVPSNETSCENWREVHHLVFHAANVCFAVGLLIPTTLHLHMILLRVMLSIGCTLYVVWATLYRCALDMMIWNSVFLGINILHLSYLLYKKRPVKIEKDLGGVYHRLFEPLRVPPDLFRRLTGQFCVIQTLKRGQVYATEDKTSVDDRLSILLKGRMKVSYRGHFLHNIYPCAFIDSPEFRSTQMHKGEKFQVTIVADDNCRFLCWSRERLTYFLESEPFLYEIFRYLIGKDITNKLYSLNDPTLNDKKVKKLEPQMSLSTQISMLEMRNSITSSSDIEDGLHHFLRGSSSTASLPMSSPQQRASPKMKPIEEGLEDDDEVFVPVSPAHQLP
For B2, in experiment [4], the binding entry is “binds”.
